PubChem BioAssay AID720505 | Drosophila RNAi Screening Center – 2013
Screen: 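Fly regulators or components of the CRAC channel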 (primary screen). Cell system: Drosophila S2R+ cells. Reagents: long dsRNA against Drosophila genes. Challenge: thapsigargin (2 µM) in calcium-free buffer to empty internal stores, then 2 mM calcium added back. Measured: 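Fluo-4 signal in 384-well plates read on a FLIPR after thapsigargin (2 µM, calcium-free) store depletion and 2 mM calcium add-back; unnormalised mean endpoint per well; screen run twice, selected wells retested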. Scale: calcium signal and retest calcium signal: higher = more calcium entry after store depletion. Rule for the call: 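About 1500 genes called as lowering calcium entry, by varying amounts, judged against per-plate control wells with STIM1 as positive and Rho1 as negative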. Calls: active = called as lowering calcium entry; inactive = not called.
The deposit covers about 20,000 reagents; below is a random part of those with a known target gene and a result. Over the whole deposit, about 2,100 (10%) were called active. 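Raw plate signals without normalisation; calls rest on control-based scores that were not deposited; replicate 2 separates called from uncalled poorly.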 Names joined by + are all predicted targets of the reagent. Not given: the amount of reagent, the time to read-out.

| target | dsRNA | calcium signal, replicate 1 | calcium signal, replicate 2 | retest calcium signal, replicate 1 | retest calcium signal, replicate 2 | Outcome |
| --- | --- | --- | --- | --- | --- | --- |
| MFS14 | DRSC06524 | 126 | 86.5 | 144 | 109 | inactive |
| Apt1 | DRSC10348 | 66.1 | 64 | – | – | inactive |
| CR15280 | DRSC01953 | 68.1 | 97.2 | – | – | active |
| CG12081 | DRSC17802 | 99.6 | 101 | – | – | inactive |
| tutl | DRSC00441 | 75.6 | 105 | – | – | inactive |
| tutl | DRSC00442 | 91.7 | 104 | – | – | inactive |
| tutl | DRSC00443 | 86.5 | 105 | – | – | inactive |
| CG3347 | DRSC00597 | 165 | 120 | – | – | inactive |
| CG18213 | DRSC15316 | 130 | 221 | – | – | inactive |
| CG1239 | DRSC12204 | 114 | 137 | – | – | inactive |
| CG30047 | DRSC05340 | 90.5 | 144 | – | – | inactive |
| RecQ4 | DRSC11265 | 76 | 86.9 | – | – | inactive |
| tum | DRSC07575 | 68.6 | 162 | – | – | inactive |
| Ssl1 | DRSC11634 | 61.3 | 115 | – | – | active |
| gpp | DRSC12515 | 93.7 | 113 | – | – | inactive |
| gpp | DRSC12516 | 161 | 172 | – | – | inactive |
| asRNA:CR43430 + hts | DRSC07629 | 161 | 163 | – | – | inactive |
| CG15888 | DRSC15125 | 104 | 134 | – | – | inactive |
| fj | DRSC07619 | 185 | 155 | – | – | inactive |
| CG12773 | DRSC18580 | 130 | 154 | – | – | inactive |
| Snap24 | DRSC16864 | 167 | 101 | – | – | inactive |
| nbs | DRSC11373 | 102 | 91.5 | – | – | inactive |
| SWIP | DRSC19540 | 93 | 164 | – | – | inactive |
| CG11927 | DRSC00337 | 89.8 | 155 | – | – | inactive |
| Dfd | DRSC12593 | 94.8 | 154 | – | – | inactive |
| CG31100 | DRSC14453 | 115 | 162 | – | – | inactive |
| CG31100 | DRSC14455 | 78.4 | 153 | – | – | inactive |
| CG33281 | DRSC00421 | 118 | 99.6 | – | – | inactive |
| CG15912 | DRSC18105 | 237 | 130 | – | – | inactive |
| CG31380 | DRSC15688 | 203 | 136 | – | – | inactive |
| CG1529 | DRSC20515 | 153 | 105 | 6145 | 115 | inactive |
| nst | DRSC09755 | 124 | 85.4 | – | – | inactive |
| RSG7 | DRSC20274 | 93.9 | 165 | – | – | inactive |
| RSG7 | DRSC22852 | 103 | 74.7 | – | – | inactive |
| mRpL19 | DRSC16367 | 161 | 157 | 6193 | 116 | inactive |
| mRpL19 | DRSC21618 | 128 | 82.8 | – | – | inactive |
| CG12288 | DRSC02155 | 115 | 115 | – | – | inactive |
| fd96Cb | DRSC16947 | 248 | 129 | – | – | inactive |
| CG5577 | DRSC10519 | 106 | 83.4 | – | – | inactive |
| CG5567 | DRSC10517 | 133 | 89.4 | – | – | inactive |
| Cpr49Ag | DRSC07203 | 103 | 187 | – | – | inactive |
| Nadk1b | DRSC05432 | 121 | 122 | – | – | inactive |
| Nadk1b | DRSC06964 | 152 | 144 | – | – | inactive |
| Nadk1b | DRSC06965 | 106 | 228 | – | – | inactive |
| CG15930 | DRSC18107 | 70.3 | 126 | – | – | active |
| msb1l | DRSC03572 | 109 | 130 | – | – | inactive |
| CSN6 | DRSC16593 | 121 | 76.7 | – | – | inactive |
| Dhrs4 | DRSC09773 | 72.1 | 69.7 | – | – | active |
| Cyp313a2 | DRSC16625 | 112 | 89.3 | – | – | inactive |
| CG10154 | DRSC09707 | 104 | 115 | – | – | inactive |
| CG17754 | DRSC18131 | 75 | 105 | – | – | active |
| CG31221 | DRSC14335 | 192 | 158 | – | – | inactive |
| CG31221 | DRSC16217 | 151 | 134 | – | – | inactive |
| Cdk7 | DRSC18451 | 63.8 | 277 | – | – | active |
| Cdk7 | DRSC23327 | 107 | 156 | – | – | inactive |
| CG4286 | DRSC04459 | 79.5 | 96.3 | – | – | inactive |
| SmydA-6 | DRSC07341 | 172 | 129 | – | – | inactive |
| ewg | DRSC18773 | 105 | 131 | 104 | 89.6 | inactive |
| CG43292 | DRSC08883 | 9109 | 152 | – | – | inactive |
| CG43292 | DRSC21542 | 181 | 99.2 | – | – | inactive |
| CG3701 (retired record) | DRSC04408 | 79.1 | 143 | – | – | inactive |
| CG3701 (retired record) | DRSC04409 | 74.7 | 113 | – | – | inactive |
| Acp76A | DRSC09665 | 112 | 91.9 | – | – | inactive |
| CG10183 | DRSC14203 | 155 | 81.6 | – | – | inactive |
| CR10991 | DRSC12156 | 107 | 177 | – | – | inactive |
| DCP2 | DRSC10597 | 160 | 95.6 | – | – | inactive |
| RpL37-2 | DRSC04584 | 129 | 230 | – | – | inactive |
| GstD10 | DRSC15346 | 110 | 94.5 | – | – | inactive |
| Timp | DRSC17082 | 87.2 | 132 | – | – | inactive |
| Gem4b + Gem4c + Glos | DRSC18244 | 122 | 147 | – | – | inactive |
| mtt | DRSC05106 | 82.2 | 102 | – | – | inactive |
| mtt | DRSC05107 | 108 | 114 | – | – | inactive |
| mtt | DRSC06753 | 113 | 158 | – | – | inactive |
| mtt | DRSC07235 | 124 | 142 | – | – | inactive |
| CG7448 (retired record) | DRSC11828 | 98 | 131 | – | – | inactive |
| CG7448 (retired record) | DRSC22485 | 122 | 186 | – | – | inactive |
| yem | DRSC14865 | 188 | 145 | – | – | inactive |
| yem | DRSC17097 | 162 | 159 | – | – | inactive |
| Tsp42Ei | DRSC06189 | 101 | 140 | – | – | inactive |
| colt | DRSC00808 | 110 | 176 | – | – | inactive |
| so | DRSC07693 | 70.7 | 64.8 | 136 | 123 | active |
| so | DRSC23096 | 120 | 146 | – | – | inactive |
| Ilp7 | DRSC17895 | 190 | 81.8 | – | – | inactive |
| for | DRSC00195 | 96.3 | 89.2 | – | – | inactive |
| for | DRSC00818 | 118 | 290 | – | – | inactive |
| Teh4 | DRSC08457 | 77.3 | 87.5 | – | – | inactive |
| sws | DRSC18843 | 96.7 | 84 | 127 | 179 | inactive |
| CG14507 | DRSC14859 | 136 | 134 | – | – | inactive |
| CG14455 | DRSC11712 | 69.5 | 106 | – | – | active |
| MFS12 | DRSC07268 | 214 | 135 | – | – | inactive |
| Tbce | DRSC04897 | 123 | 125 | – | – | inactive |
| Pgls | DRSC19769 | 62.5 | 115 | – | – | active |
| ERp44 | DRSC20215 | 159 | 125 | – | – | inactive |
| CG5188 | DRSC02826 | 180 | 173 | – | – | inactive |
| CG31659 | DRSC00760 | 185 | 133 | – | – | inactive |
| CG31111 | DRSC14649 | 135 | 124 | – | – | inactive |
| CG13965 | DRSC02307 | 158 | 93.5 | – | – | inactive |
| Mrp4 | DRSC14931 | 129 | 135 | – | – | inactive |
| Ccs | DRSC06692 | 111 | 167 | – | – | inactive |
| CG7600 | DRSC09681 | 116 | 101 | – | – | inactive |
| Acsl | DRSC07252 | 167 | 163 | – | – | inactive |
| CG17242 | DRSC00493 | 131 | 161 | – | – | inactive |
| CG15369 | DRSC18041 | 82.9 | 95 | – | – | inactive |
| Exn | DRSC09673 | 92.5 | 85.7 | – | – | inactive |
| Exn | DRSC10077 | 84.8 | 150 | – | – | inactive |
| Arpc2 | DRSC02113 | 92 | 82.8 | – | – | inactive |

An excerpt from above, reduced to “calcium signal, replicate 2”:
Tsp42Ei [DRSC06189]: 140
colt [DRSC00808]: 176
so [DRSC07693]: 64.8
so [DRSC23096]: 146
Ilp7 [DRSC17895]: 81.8
for [DRSC00195]: 89.2
for [DRSC00818]: 290
Teh4 [DRSC08457]: 87.5
